# The full ranking holds about 1,600 compounds; the median of “plate-normalized OD600 growth (mean of duplicates)” is about 0.31, and the lowest 2% start at about 0.23. The list shows a part of the results.
# System: Escherichia coli BW25113
# Assay: plate-normalized OD600 growth (mean of duplicates) (OD600 (normalized)); higher = more growth (less inhibition)
# Settings: 10 µM
# Experimental: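 E. coli BW25113 in LB (100 µl, 96-well, no shaking) was exposed to 10 µM of each compound (here the ChemBridge subset of a ~30,000-member library) and grown at 37°C for 24 h or 15°C for 48 h, in duplicate. Growth was read as OD600 and the duplicate ODs were normalized across screening plates to correct plate-to-plate variation.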
Structure (SMILES),"plate-normalized OD600 growth (temperature: 15°C, 48 h)","plate-normalized OD600 growth (temperature: 37°C, 24 h)"
Cc1cccc(NC(=O)C(O)c2ccccc2)c1 (stereo not given),0.249,0.614
N#Cc1ccc(-c2cccs2)[nH]c1=O,0.236,0.644
COc1ccc(-c2csc(/C(C#N)=C\c3cccnc3)n2)cc1,0.244,0.645
CCCS(CCC)=C(C(N)=O)[N+](=O)[O-],0.28,0.622
O=[N+]([O-])c1cc(F)c(N2CCOCC2)cc1N1CCCCC1,0.239,0.613
O=C(Nc1ccc(Cl)cc1Cl)C1CCCO1 (stereo not given),0.234,0.605
Cc1cc(C)n(C(=O)c2ccccc2F)n1,0.251,0.635
COc1ccc(S(=O)(=O)N2CCCC2)cc1,0.219,0.612
CSc1nc(C)c(C(C)=O)cc1C#N,0.244,0.621
N#Cc1c(N)nc2c(c1-c1ccccc1)CCCCC2,0.243,0.602
Nc1cc(C(=O)O)ccc1Nc1ccccc1,0.261,0.634
CC(=O)c1ccc(NC(=O)Cc2ccccc2[N+](=O)[O-])cc1,0.237,0.599
N#CCNC1CC(=O)N(c2ccc(F)cc2)C1=O (stereo not given),0.245,0.606
N#CC1=C(N)Oc2cc(N)ccc2C1c1cccc(Cl)c1Cl (stereo not given),0.243,0.592
CCSC1=C(C#N)C(c2ccc(Cl)cc2Cl)CC(=O)N1 (stereo not given),0.255,0.65
COc1ccc(NC(=O)c2cccc(C)c2)c(OC)c1,0.244,0.625
CC1CCCC(C)N1C(=O)Nc1ccccc1 (stereo not given),0.256,0.622
COc1ccc([N+](=O)[O-])cc1NCc1c(F)cccc1F,0.25,0.628
O=c1c(Cc2ccccc2)c[nH]c2ccccc12,0.242,0.634
O=C(O)CCSc1nccn1Cc1ccccc1,0.242,0.653
CCc1ccc(NC(=O)Cn2cc([N+](=O)[O-])nc2C)cc1,0.261,0.653
O=C(NN1CCOCC1)c1cccc(Br)c1,0.253,0.615

Structure (SMILES),"plate-normalized OD600 growth (temperature: 15°C, 48 h)","plate-normalized OD600 growth (temperature: 37°C, 24 h)"
COc1ccc(-c2c(C)[nH]n3c(=O)cc(-c4ccc([N+](=O)[O-])cc4)nc23)cc1,0.24,0.608
COc1ccc2c(c1)-c1nc(N)sc1CC2,0.253,0.616
COc1ccc(N/C=C(/c2cc(O)ccc2O)[N+](=O)[O-])cc1,0.255,0.624
CN(CCc1ccccc1)CC(O)c1cccc([N+](=O)[O-])c1 (stereo not given),0.246,0.611
O=C(COc1ccc(Cl)cc1Cl)NCCc1ccccc1,0.258,0.621
CCN1CCN(CC2CCCCC2)CC1,0.26,0.637
CC(=O)Nc1ccc(S(=O)(=O)NC2=NCCS2)cc1,0.234,0.602
O=C(CSc1nc2ccccc2o1)NC1CCCCC1,0.3,0.648
CCOc1ccc(NC(=O)c2c(OC)cccc2OC)cc1,0.256,0.611
Cc1nc2n(n1)C(c1ccccc1)C=C(c1ccccc1)N2 (stereo not given),0.239,0.617
OC1CCCN(Cc2ccc(Br)s2)C1 (stereo not given),0.255,0.632
Cc1ccc(O)c(-c2cc(-c3ccccc3)n[nH]2)c1,0.246,0.599
N#C/C(=C\c1ccc(F)cc1)c1nc(C2CC2)cs1,0.245,0.625
COc1cc(/C=C\C(=O)c2ccco2)cc(OC)c1OC,0.23,0.609
O=[N+]([O-])c1ccccc1Sc1nccn1Cc1ccccc1,0.241,0.609
Cc1ccc(N2C(=O)CC(SCc3ccccc3)C2=O)c(C)c1 (stereo not given),0.228,0.598
NNC(=O)CCn1c2ccc(Cl)cc2c2cc(Cl)ccc21,0.241,0.587
O=[N+]([O-])c1cccc(CNc2cccc(F)c2)c1,0.241,0.603
O=C(O)C1NCCc2ccccc21 (stereo not given),0.249,0.612
CCN(CCN(C)C)Cc1ccc(NC(C)=O)cc1,0.234,0.652
O=C(O)CC(NC(=O)c1ccccc1)c1ccccc1 (stereo not given),0.25,0.626
CCC(C(=O)Nc1c(C)cc(C)cc1C)N1CCCCCC1 (stereo not given),0.243,0.643

Structure (SMILES),"plate-normalized OD600 growth (temperature: 15°C, 48 h)","plate-normalized OD600 growth (temperature: 37°C, 24 h)"
O=C(CCN1C(=O)c2ccccc2C1=O)NCc1ccco1,0.255,0.646
CC1CCN(C(=O)c2ccc(C(C)(C)C)cc2)CC1,0.257,0.627
O=c1[nH]c(/C=C/c2ccc(Cl)cc2Cl)c([N+](=O)[O-])c(=O)[nH]1,0.248,0.609
C=CCn1c(SC(C)CC)nc(O)cc1=O (stereo not given),0.258,0.618
CSc1ccc(CN2CCC(C(N)=O)CC2)cc1,0.28,0.641
CC(C)(C)c1ccccc1OCCCSC#N,0.233,0.622
COc1ccc(C(=O)NN2CCOCC2)cc1OC,0.253,0.604
COc1ccc([N+](=O)[O-])cc1NCc1cc(OC)c2c(c1)OCO2,0.24,0.616
O=[N+]([O-])c1cc2c3c(c1)C1C=CCC1CN3CC1CC=CC21 (stereo not given),0.277,0.623
COc1ccc(NC(=O)Cc2c(O)c3ccccc3[nH]c2=O)cc1,0.266,0.634
CC(=O)N1CCN(Cc2cc(C(C)(C)C)cc(C(C)(C)C)c2O)CC1,0.234,0.65
O=C(CN1CCCCCC1)N1c2ccccc2Sc2ccc(Cl)cc21,0.244,0.612
CC(=O)c1ccc(N2CCN(c3cnccn3)CC2)cc1,0.267,0.625
CC1CCN(C(=O)c2ccc(Cl)c(Cl)c2)CC1,0.245,0.623
CS(=O)(=O)N1CCN(c2ccc([N+](=O)[O-])cc2Cl)CC1,0.245,0.614
O=C(Nc1nc2ccccc2n1CCN1CCCCC1)c1ccccc1,0.237,0.602
Cc1nc(SCC(N)=O)c(C#N)c(C)c1C,0.274,0.642
CN(C)c1ccc(CN2CCC(O)CC2)cc1,0.25,0.635
CCCN1CCC(NN2CCOCC2)CC1,0.258,0.612
Cc1nc([N+](=O)[O-])c(N2CCOCC2)n1Cc1ccccc1,0.259,0.623
O=C(NN1C(=O)c2ccccc2C1=O)c1cc(O)cc(O)c1,0.26,0.611
CN(C)CCNCC12CC3CC(CC(C3)C1)C2,0.248,0.617

Structure (SMILES),"plate-normalized OD600 growth (temperature: 15°C, 48 h)","plate-normalized OD600 growth (temperature: 37°C, 24 h)"
Cc1ccc(OCCSc2nc(C)cc(=O)[nH]2)cc1,0.241,0.624
Cc1cc(C)c(N2CCC(=O)N2)c(C)c1,0.23,0.617
CCC(C)NC(=O)C(=O)Nc1ccccc1OC (stereo not given),0.259,0.616
CC(C)(C)NS(=O)(=O)c1ccccc1[N+](=O)[O-],0.251,0.613
N#CC1=C(N)OC2=C(C(=O)CC(c3ccccc3)C2)C1c1ccsc1 (stereo not given),0.25,0.622
COc1ccc2c(Cl)c(C(=O)N3CCCCC3)sc2c1,0.258,0.657
O=C(Nc1cccc(Cl)c1)Nc1cccc2cccnc12,0.252,0.605
Nc1cc(S(=O)(=O)c2ccc(Cl)cc2)ccc1Cl,0.244,0.58
Cc1ccc2c(N)c(C(=O)c3ccc([N+](=O)[O-])cc3)sc2n1,0.273,0.656
O=C(NC1C[C@@H]1c1ccccc1)[C@@H]1CC1c1ccccc1 (stereo not given in full),0.272,0.63
CC1=C(C#N)C(c2ccccc2F)C2=C(CCCC2=O)N1 (stereo not given),0.244,0.606
CC1CCC(NCCN2CCCCC2)CC1 (stereo not given),0.275,0.656
NC1CCCc2c1[nH]c1ccc([N+](=O)[O-])cc21 (stereo not given),0.173,0.552
CC(=O)c1ccc(S(=O)(=O)N2CCOCC2)cc1,0.244,0.643
O=[N+]([O-])C1=C(Nc2ccccc2O)CS(=O)(=O)C1,0.241,0.621
O=C(C(c1ccccc1)c1ccccc1)N1CCCC1,0.262,0.596
Cc1ccc(-c2csc(C(C#N)=Cc3ccc(N(C)C)cc3)n2)cc1,0.235,0.626
O=[N+]([O-])c1ccc(-c2nnc(-c3ccccc3Cl)o2)cc1,0.244,0.601
Cc1ccc2c(c1)NC(c1cccs1)C1=C(CC(C)(C)CC1=O)N2 (stereo not given),0.241,0.635
N#C/C(=C\c1ccc(Br)o1)c1nc(-c2ccccc2)cs1,0.246,0.6
CC(C)(C)S(=O)(=O)c1cccc(S(=O)(=O)C(C)(C)C)c1,0.259,0.612
O=[N+]([O-])c1cccc(C2NCCc3c2[nH]c2ccccc32)c1 (stereo not given),0.248,0.602

Structure (SMILES),"plate-normalized OD600 growth (temperature: 15°C, 48 h)","plate-normalized OD600 growth (temperature: 37°C, 24 h)"
Clc1ccccc1N1CCN(Cc2ccc(Br)o2)CC1,0.245,0.606
CCC(O)C#CC(C)(O)CCC=C(C)C (stereo not given),0.245,0.606
CCN(CC)S(=O)(=O)C1CCS(=O)(=O)C1 (stereo not given),0.242,0.611
Cc1cccc(C2NCCc3c2[nH]c2ccccc32)c1 (stereo not given),0.244,0.606
Cc1occc1C(=O)NCc1ccccc1,0.25,0.62
O=C(O)c1cccc(Nc2nc(-c3ccncc3)cs2)c1,0.262,0.629
COc1ccccc1C1C(C#N)=C(N)Oc2cc(O)c(Cl)cc21 (stereo not given),0.261,0.618
Brc1ccc(CN2CCN(c3ccccn3)CC2)cc1,0.267,0.614
O=[N+]([O-])c1ccc(N2CCN(Cc3ccc(Br)s3)CC2)cc1,0.242,0.58
COc1ccc(N2C(=O)CCc3c(-c4ccccc4)cc(N(C)C)cc32)cc1,0.236,0.647
OC1CCN(Cc2ccc3c(c2)OCO3)CC1,0.261,0.606
Cc1ccc(S(=O)(=O)NCCCN2CCOCC2)cc1,0.248,0.631
Cc1cc(C)n(S(=O)(=O)c2ccc(Cl)cc2)n1,0.251,0.634
CCN(CC)S(=O)(=O)c1cccc(C(=O)NCc2ccccc2)c1,0.254,0.636
CC(C)=CCCC(C)CN1CCN(CCOCCO)CC1 (stereo not given),0.281,0.636
c1nc(NC2CCCCC2)c2c3c(sc2n1)CCCC3,0.258,0.626
COc1ccc(COCC(O)CN2CCCCC2)cc1OC (stereo not given),0.245,0.615
Cc1n[nH]c(C)c1CCCCOc1ccc(Br)cc1,0.216,0.601
CC(CC#CCN1CCCC1)OCCC#N (stereo not given),0.244,0.619
O=[N+]([O-])c1ccc2nc(N3CCOCC3)sc2c1,0.234,0.626
Nc1nnc(-c2ccc(F)cc2)s1,0.259,0.63
CC(C)(O)C#Cc1ccc(C(=O)N2CCC(Cc3ccccc3)CC2)cc1,0.244,0.622

# Complete entries from above.
# O=[N+]([O-])c1cccc(CNc2cccc(F)c2)c1 in the list: plate-normalized OD600 growth (temperature: 15°C, 48 h): 0.241; plate-normalized OD600 growth (temperature: 37°C, 24 h): 0.603
# CC(=O)c1ccc(NC(=O)Cc2ccccc2[N+](=O)[O-])cc1 in the list: plate-normalized OD600 growth (temperature: 15°C, 48 h): 0.237; plate-normalized OD600 growth (temperature: 37°C, 24 h): 0.599

# From the supplement of paper PMC4371806
